{"source": "paper PMC6214915", "about": "(Scientific Reports, 2018)", "test": "general procedure: Fmoc solid-phase peptide synthesis; Rink amide resin; Oxyma/DIC", "settings": "whole synthesis"}
{"substance": "KCVRQNNKRVCK-NH2", "values": [{"measurement": "isolated yield", "result": 66, "unit": "%"}]}
